Laboratory results taken from PubChem BioAssay AID256 (DTP/NCI, 2004).
The list is a part of this screen's results and no random one: it is rich in T/C values a quarter to a half above the control, in often repeated tests (any T/C) and in doses without a T/C. Further doses and runs are listed elsewhere. T/C is the treated group as % of the vehicle group. Some entries give survivors of the animals treated and no T/C: the source files T/C as zero there, which appears to mark a toxic dose or a test without result, not a measured value. Some survivor counts are full or nearly so, which does not show that the dose was tolerated: survival well below the control is almost never listed, so the zero probably covers shortened survival too. Survivors were counted at the toxicity check, usually on the fifth day, unless a day is given; later deaths do not show. Schedules are NCI's codes, taken here to give the interval after Q, in days (D) or hours (H), and the number of doses after X. Brackets with × say how often a value occurs here. Some entries hold several experiments; their values stand side by side, smallest first. Where survival is the endpoint, this PubChem deposit counts one and a half times the control or more as active, and values a quarter to a half above the control carry no call in these data; other NCI protocols may use other cut-offs. Some T/C values are followed by the survivors on the day toxicity was checked, most often the fifth; without a count, all were alive then.

Tested on: CD2F1 mice, L1210 leukemia ip, survival T/C
Assay: NCI In Vivo Anticancer Drug Screen. Data for tumor model L1210 Leukemia (intraperitoneal) in CD2F1 (CDF1) mice
Details: higher T/C = longer survival
Method in brief: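 Activity against a transplanted murine tumor was judged by comparing the compound group with a vehicle group. The outcome in the treated animals was divided by that in the controls.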

[1] = T/C endpoint: mean survival time, dose: 100.0 mg/kg/injection, schedule: Q04DX003 (ip), vehicle: saline with Tween-80
[2] = T/C endpoint: mean survival time, dose: 200.0 mg/kg/injection, schedule: Q04DX003 (ip), vehicle: saline with Tween-80
[3] = T/C endpoint: mean survival time, dose: 400.0 mg/kg/injection, schedule: Q04DX003 (ip), vehicle: saline with Tween-80
[4] = T/C endpoint: mean survival time, dose: 200.0 mg/kg/injection, schedule: Q01DX001 (ip), vehicle: saline with Tween-80
[5] = T/C endpoint: mean survival time, dose: 400.0 mg/kg/injection, schedule: Q01DX009 (ip), vehicle: saline with Tween-80
[6] = T/C endpoint: mean survival time, dose: 100.0 mg/kg/injection, schedule: Q01DX009 (ip), vehicle: saline with Tween-80
[7] = T/C endpoint: mean survival time, dose: 200.0 mg/kg/injection, schedule: Q01DX009 (ip), vehicle: saline with Tween-80
[8] = T/C endpoint: mean survival time, dose: 400.0 mg/kg/injection, schedule: Q01DX009 (ip), vehicle: saline
[9] = T/C endpoint: mean survival time, dose: 25.0 mg/kg/injection, schedule: Q01DX009 (ip), vehicle: saline with Tween-80
[10] = T/C endpoint: median survival time, dose: 200.0 mg/kg/injection, schedule: Q01DX005 (ip), vehicle: saline with Tween-80

With `COC(=O)C=P(c1ccccc1)(c1ccccc1)c1ccccc1` the survivor count [1] was 1 of 6, the survivor count [2] was 0 of 6 and 1 of 6 and the survivor count [3] was 0 of 6 (2×).
`COC1OC(CO)C(OC(=O)Nc2ccccc2)C(OC(=O)Nc2ccccc2)C1O` (configuration not stated) was tested, and the survivor count [4] was 6 of 6.
With `O=P(Oc1ccc(OP(=O)(N2CC2)N2CC2)cc1)(N1CC1)N1CC1` the T/C (T/C endpoint: mean survival time, dose: 88.0 mg/kg/injection, schedule: Q01DX001 (ip), vehicle: saline) was 136 % of control.
For `O=C(O)CC(=O)CC(=O)O.[NH-]C1CCCCC1[NH-].[Pt+2]`, the T/C (T/C endpoint: median survival time, dose: 25.0 mg/kg/injection, schedule: Q04DX003 (ip), vehicle: saline) was 128 % of control, the T/C (T/C endpoint: median survival time, dose: 50.0 mg/kg/injection, schedule: Q04DX003 (ip), vehicle: saline) was 128 and 141 % of control and the survivor count (T/C endpoint: median survival time, dose: 200.0 mg/kg/injection, schedule: Q04DX003 (ip), vehicle: saline) was 3 of 6.
`CS(=O)(=O)OCC(=O)C(=O)COS(C)(=O)=O` was tested, and the survivor count (T/C endpoint: mean survival time, dose: 200.0 mg/kg/injection, schedule: Q01DX001 (ip), vehicle: saline) was 1 of 6 and the survivor count (T/C endpoint: mean survival time, dose: 400.0 mg/kg/injection, schedule: Q01DX001 (ip), vehicle: saline) was 1 of 6.
For `CNC/C(C)=C/Cl`, the survivor count (T/C endpoint: mean survival time, dose: 200.0 mg/kg/injection, schedule: Q01DX009 (ip), vehicle: acetone) was 3 of 6.
In the case of `O=C(O)CC1(c2ccccc2)OC(=O)c2ccccc21` (configuration not stated), the survivor count [5] is reported as 5 of 6.
With `O=[N+]([O-])c1ccc(O)c(Cl)c1` the survivor count [6] was 0 of 3 and the survivor count [7] was 0 of 3.
With `CCCCCCCCCC(=O)NC(=S)Nc1cccc(C(C)=O)c1` the survivor count (T/C endpoint: mean survival time, dose: 400.0 mg/kg/injection, schedule: Q01DX001 (ip), vehicle: saline with Tween-80) was 6 of 6 and the survivor count [5] was 3 of 6.
`NNc1n[nH]c(=S)n1N` was tested, and the survivor count (T/C endpoint: mean survival time, dose: 50.0 mg/kg/injection, schedule: Q01DX009 (ip), vehicle: saline with Tween-80) was 2 of 6 and the survivor count [6] was 1 of 6.
For `C=C1CC2C=CC1C2` (configuration not stated) (tested in a mixture with another compound), the survivor count (T/C endpoint: mean survival time, dose: 161.0 mg/kg/injection, schedule: Q01DX009 (ip), vehicle: saline with Tween-80) was 3 of 6 and the survivor count (T/C endpoint: mean survival time, dose: 322.0 mg/kg/injection, schedule: Q01DX009 (ip), vehicle: saline with Tween-80) was 0 of 6.
For `CC(=O)CC(OC(C)=O)(C(F)(F)F)C(F)(F)F`, the survivor count (T/C endpoint: mean survival time, dose: 100.0 mg/kg/injection, schedule: Q04DX002 (ip), vehicle: saline) was 2 of 3, the survivor count (T/C endpoint: mean survival time, dose: 200.0 mg/kg/injection, schedule: Q04DX003 (ip), vehicle: Klucel (hydroxypropylcellulose) (HPC)) was 1 of 6 and the survivor count (T/C endpoint: mean survival time, dose: 400.0 mg/kg/injection, schedule: Q04DX003 (ip), vehicle: Klucel (hydroxypropylcellulose) (HPC)) was 0 of 6.
In the case of `N#Cc1c(-c2ccccc2)c(-c2ccccc2)nn(CC(=O)O)c1=O`, the survivor count (T/C endpoint: median survival time, dose: 400.0 mg/kg/injection, schedule: Q01DX005 (ip), vehicle: distilled water + Tween-80) is reported as 3 of 6.
`CCc1ncc(CO)n1Cc1ccccc1` was tested, and the survivor count [7] was 4 of 6 and the survivor count [5] was 0 of 6.
For `Cc1[nH]c2ccccc2c1C(c1cc(Cl)cc(Cl)c1O)c1c(C)[nH]c2ccccc12`, the survivor count [6] was 3 of 3 and the survivor count [5] was 3 of 3.
For `CC(=O)OC1CCC2(C)C(=CCC3C4CC(C=O)=C(Cl)NC4(C)CCC32)C1` (configuration not stated), the survivor count [4] was 6 of 6.
With `OCC#CCOCC(O)CCl` (configuration not stated) the survivor count (T/C endpoint: mean survival time, dose: 400.0 mg/kg/injection, schedule: Q01DX009 (ip), vehicle: water) was 0 of 6.
For `O=c1[nH]cc[nH]1`, the T/C [8] was 132 % of control.
In the case of `O=C1CCCC(=O)N1CCCCCCN1C(=O)CCCC1=O`, the survivor count [5] is reported as 2 of 6.
In the case of `CC1CC(C)(C)NC1=O` (configuration not stated), the survivor count (T/C endpoint: mean survival time, dose: 100.0 mg/kg/injection, schedule: Q04DX003 (ip), vehicle: saline) is reported as 0 of 6, the survivor count (T/C endpoint: mean survival time, dose: 200.0 mg/kg/injection, schedule: Q04DX003 (ip), vehicle: saline) is reported as 0 of 6 and the survivor count (T/C endpoint: mean survival time, dose: 400.0 mg/kg/injection, schedule: Q04DX003 (ip), vehicle: saline) is reported as 0 of 6.
With `COc1ccc2[nH]c3c(C)c4cc[n+](C)cc4c(C)c3c2c1` the T/C (T/C endpoint: mean survival time, dose: 16.5 mg/kg/injection, schedule: Q04DX003 (ip), vehicle: saline sonified) was 130 % of control, the survivor count [9] was 5 of 6 and the survivor count (T/C endpoint: mean survival time, dose: 100.0 mg/kg/injection, schedule: Q04DX003 (ip), vehicle: saline sonified) was 1 of 6. The survivor count (T/C endpoint: mean survival time, dose: 200.0 mg/kg/injection, schedule: Q04DX003 (ip), vehicle: saline sonified) was 2 of 6 and the survivor count (T/C endpoint: mean survival time, dose: 400.0 mg/kg/injection, schedule: Q04DX003 (ip), vehicle: saline sonified) was 0 of 6.
For `CCC1(O)C(=O)OCc2c1cc1n(c2=O)Cc2cc3cc(Cl)ccc3nc2-1` (configuration not stated), the survivor count (T/C endpoint: median survival time, dose: 40.0 mg/kg/injection, schedule: Q04DX002 (ip), vehicle: saline with Tween-80) was 6 of 6 and the survivor count (T/C endpoint: median survival time, dose: 80.0 mg/kg/injection, schedule: Q04DX002 (ip), vehicle: saline with Tween-80) was 6 of 6.
`NCCNCCNCc1ccccc1` was tested, and the survivor count [8] was 0 of 6.
In the case of `COc1cc(/C=C/c2ccccn2)cc(OC)c1OC`, the survivor count [3] is reported as 5 of 6.
`c1ccc(C[n+]2ccc3ccccc3c2)cc1` was tested, and the survivor count (T/C endpoint: mean survival time, dose: 50.0 mg/kg/injection, schedule: Q04DX003 (ip), vehicle: saline with Tween-80) was 6 of 6, the survivor count [1] was 1 of 6 and the survivor count [2] was 0 of 6.
`Cc1ccc(-n2c(=S)[nH]c3ccc(C)cc3c2=O)cc1` was tested, and the survivor count (T/C endpoint: mean survival time, dose: 3.13 mg/kg/injection, schedule: Q01DX009 (ip), vehicle: saline with Tween-80) was 6 of 6, the survivor count (T/C endpoint: mean survival time, dose: 6.25 mg/kg/injection, schedule: Q01DX009 (ip), vehicle: saline with Tween-80) was 6 of 6 and the survivor count (T/C endpoint: mean survival time, dose: 12.5 mg/kg/injection, schedule: Q01DX009 (ip), vehicle: saline with Tween-80) was 6 of 6. The survivor count [9] was 5 of 6.
For `CCC(=O)OCCn1c2ccccc2c2c(C)c3cnccc3c(C)c21`, the T/C [7] was 141 % of control.
`CCN(CC)CC(=O)O[C@]1(CC)C(=O)OCc2c1cc1n(c2=O)Cc2cc3ccccc3nc2-1` was tested, and the T/C (T/C endpoint: median survival time, dose: 2.0 mg/kg/injection, schedule: Q01DX009 (ip), vehicle: water) was 132 and 134 % of control, the T/C (T/C endpoint: median survival time, dose: 3.75 mg/kg/injection, schedule: Q04HX004 (iv), vehicle: dextrose) was 141 % of control and the T/C (T/C endpoint: median survival time, dose: 7.5 mg/kg/injection, schedule: Q04DX002 (ip), vehicle: water) was 125 % of control. The T/C (T/C endpoint: median survival time, dose: 8.0 mg/kg/injection, schedule: Q01DX009 (ip), vehicle: water) was 130 % of control and the T/C (T/C endpoint: median survival time, dose: 15.0 mg/kg/injection, schedule: Q04DX002 (ip), vehicle: water) was 147 % of control.
`OC(c1ccccc1)(c1ccccc1)c1nc2ccccc2o1` was tested, and the survivor count [5] was 3 of 6.
In the case of `CCCCCCCCOC(CN)C(Cl)(Cl)Cl` (configuration not stated), the survivor count [1] is reported as 0 of 6, the survivor count [2] is reported as 1 of 6 and the survivor count [3] is reported as 0 of 6.
In the case of `Cc1nc(-c2ccccc2)[nH]c(=O)c1CC(C)O` (configuration not stated), the survivor count [5] is reported as 3 of 6.
With `O=C1CN(c2ccccc2)C(=O)C1C(=O)Nc1ccc(Cl)c(Cl)c1` (configuration not stated) the T/C (T/C endpoint: median survival time, dose: 72.0 mg/kg/injection, schedule: Q01DX005 (ip), vehicle: saline with Tween-80) was 101, 105, 106, 112 % of control, the T/C (T/C endpoint: median survival time, dose: 120.0 mg/kg/injection, schedule: Q01DX005 (ip), vehicle: saline with Tween-80) was 91, 125, 130, 136, 151 % of control and the T/C [10] was 142 % of control [5 of 6 alive]. For the same compound, the survivor count [10] was 0 of 6, 3 of 6, 4 of 6, the survivor count (T/C endpoint: median survival time, dose: 240.0 mg/kg/injection, schedule: Q01DX005 (ip), vehicle: saline with Tween-80) was 3 of 6 and the survivor count (T/C endpoint: median survival time, dose: 333.0 mg/kg/injection, schedule: Q01DX005 (ip), vehicle: saline with Tween-80) was 0 of 6. For the same compound, the survivor count (T/C endpoint: median survival time, dose: 333.3 mg/kg/injection, schedule: Q01DX005 (ip), vehicle: saline with Tween-80) was 0 of 6 and the survivor count (T/C endpoint: median survival time, dose: 480.0 mg/kg/injection, schedule: Q01DX005 (ip), vehicle: saline with Tween-80) was 0 of 6.
For `O=C1OC2C(I)C3CC1C2C3` (configuration not stated), the survivor count [3] was 5 of 6.
For `Cc1cc(N/N=C/c2ccccn2)nc2ccccc12`, the survivor count (T/C endpoint: median survival time, dose: 100.0 mg/kg/injection, schedule: Q01DX009 (ip), vehicle: Klucel (hydroxypropylcellulose) (HPC)) was 3 of 6.
